Experimental data: article PMC6978808, “In Situ Structure of an Intact Lipopolysaccharide-Bound Bacterial Surface Layer” (Cell, 2020)
No constants are given. Whether binding was seen depends on the method and setting.

Biological target: N-terminal domain of RsaA (RsaANTD) (Caulobacter crescentus) (UniProt P35828)
Test: SEC; gel filtration of purified RsaANTD alone, without LPS or PS (Figure S1D); small particles on cryo-EM grids; both purified

B1: N-terminal domain of RsaA (RsaANTD) (domain or fragment, Caulobacter crescentus)
chain: AYTTAQLVTAYTNANLGKAPDAATTLTLDAYATQTQTGGLSDAAALTNTLKLVNSTTAVAIQTYQFFTGVAPSAAGLDFLVDSTTNTNDLNDAYYSKFAQENRFINFSINLATGAGAGATAFAAAYTGVSYAQTVATAYDKIIGNAVATAAGVDVAAAVAFLSRQANIDYLTAFVRANTPFTAAADIDLAVKAALIGTILNAATVSGIGGYATATAAMINDLSDGALSTDNAAGVNLFTAYPSSGVSGSEN
notes: S-layer protein RsaA of Caulobacter crescentus (1026 residues), N-terminal domain; the introduction defines RsaANTD as residues 1-249; residues 2-243 are built in the cryo-EM model; Cleavage by TEV protease after Gln would leave Glu-Asn-Leu-Tyr-Phe-Gln; also called inner domain of the S-layer; source: C. crescentus rsaATEV250 strain
binding: no binding (condition: without LPS or PS added)
